One assay relates to C4-2AR-WT cells, AR(+). Briefly: CRPC cell proliferation assay (CellTiter-Glo), C4-2AR-WT. The format is cell-based. Particulars: CTG at 96h. The method, then:
(§1) Castrate-Resistant Prostate Cancer (CRPC) Cell Proliferation Assay • Cells were seeded into 96-well plates at 2,000-10,000 cells/well in 100 uL medium. Four AR(+) cell lines (LnCaP, C4-2 (parental), C4-2AR-WT and C4-2AR—F876L) and one AR(−) cell line (DU-145) were studied. Compound treated cells were analyzed for cell density at 96h, using CellTiter-Glo® (CTG) reagent (Promega). […] Example 10 and IBET-151 BET had submicromolar IC50 values in the AR(+) cell lines. The inhibitors maintained potency in C4-2 cells engineered to express wild type (WT) AR receptor (C4-2-AR-WT), as well as cells engineered to express the F876L mutation (C4-2-AR-F876L) that confers resistance to androgen receptor (AR) antagonists.
In general terms: In ATP-based viability assays light output follows the ATP content of the culture.

The next assay concerns LnCaP cells, AR(+). Briefly: CRPC cell proliferation assay (CellTiter-Glo), LnCaP. The settings on record: Homo sapiens, CTG at 96h. The format is cell-based. The method, then:
as §1

Usually IC50 stands for the concentration at which inhibition is half-maximal. As for `CNC(=O)c1ccc(N2C(=S)N(c3ccc(C#N)c(C(F)(F)F)c3)C(=O)C2(C)C)cc1F` [MDV3100, reference compound], the IC50 stood at 840 nM in the assay with C4-2AR-WT cells, AR(+) and 320 nM in the assay on LnCaP cells, AR(+).
